Among all 300,000 compounds or so, about 5,400 (1.8%) were called active. This list was built around the results that the source calls inconclusive (neither active nor inactive); the mix of calls is not that of the screen. Calls follow the shape of the full dose curve; tested in HEK293 cells. A potency beside an inconclusive call is a rough fit, not a confirmed value.
Assay: qHTS for inhibitors of binding or entry into cells for Marburg Virus
Conditions: Marburg virus pseudotyped entry inhibition, cell reporter; activity change, negative = inhibition: at 37.8 µM (top of the series) unless noted
% is scaled to controls: 0 for no effect and ±100 for the full control effect; potency is read from the fitted curve at half-maximal effect.

Q: For `COc1cc(C(=O)Nc2nonc2-c2ccc(Cl)cc2)cc(OC)c1OC`, which “activity change, negative = inhibition” value is on record?
A: Its value is inactive: -12.9% [at 46.1 µM].

Q: For `CCOc1ccc(/C=C/C(=O)Nc2ccc(C(N)=O)cc2)cc1OC`, which Potency is on record?
A: The Potency was inconclusive: 2.82 µM [inhibitor, single point].

Q: For `COc1cc2sc(C)nc2cc1C`, which Potency is on record?
A: The Potency was inconclusive: 5.62 µM [activator, partial curve, poor fit].

Q: With `C=CCn1c(SCC(=O)NCCc2ccccc2)nc2c([nH]c3ccccc32)c1=O` as the compound, how does the Potency read?
A: The Potency was inconclusive: 1.41 µM [inhibitor, partial curve, poor fit].

Q: Which Potency does the source give for `COc1cccc(CNCCSc2nnnn2C)c1OCc1ccc(F)cc1` here?
A: The Potency was inconclusive: 10 µM [inhibitor, partial curve].

Q: For `COc1cccc(NC(=O)N(Cc2c[nH]c3ccccc23)C2CCCCC2)c1`, which Potency is on record?
A: Its Potency is inconclusive: 0.891 µM [activator, full curve].

Q: For `Fc1ccc(NC(=S)NN=Cc2ccccc2Cl)cc1`, which Potency is on record?
A: The Potency was inconclusive: 6.31 µM [inhibitor, full curve, poor fit].

Q: Which Potency does the source give for `O=C(/C=C/c1ccc(-c2cccc([N+](=O)[O-])c2)o1)N1CCOCC1` here?
A: Its Potency is inconclusive: 0.708 µM [activator, single point].

Q: With `COc1ccc(C2=NOC(CN3C(=O)c4ccccc4S3(=O)=O)C2)cc1` (centres undefined) as the compound, how does the “activity change, negative = inhibition” value read?
A: Its value is inactive: -11.1%.

Q: With `CCOc1ccc(CCNC(=O)c2ccc3c(c2)sc2nc(-c4ccc(F)cc4)cn23)cc1OCC` as the compound, how does the Potency read?
A: The Potency was active: 2.51 µM.

Q: Which “activity change, negative = inhibition” value does the source give for `C=CCN1C(=O)c2ccc(C(=O)N3CCN(S(=O)(=O)c4cccc(F)c4)CC3)cc2C1=O` here?
A: Its value is inactive: -7.97%.

Q: With `N/C(=N\OC(=O)C1CCCCC1)c1ccncc1` as the compound, how does the “activity change, negative = inhibition” value read?
A: Its value is inactive: 18.5% [at 46.1 µM].

Q: Which Potency does the source give for `Cc1ccc(C(C(=O)NC2CCCCC2)N(Cc2cccnc2)C(=O)C2COc3ccccc3O2)o1` (centres undefined) here?
A: The Potency was inconclusive: 20.6 µM [inhibitor, single point].

Q: For `COc1cc(NC(=O)c2ccccc2)c(C)cc1NC(=O)CC(CC(=O)O)c1ccccc1` (centres undefined), which “activity change, negative = inhibition” value is on record?
A: Its value is inactive: 6.53% [at 46.1 µM].

Q: Which “activity change, negative = inhibition” value does the source give for `Cc1nc(CCNC(=O)c2ccccc2)cs1` here?
A: Its value is inactive: 3.6%.

Q: For `CC1(CO)COC2(OC1)C(=O)Nc1ccccc12` (centres undefined), which “activity change, negative = inhibition” value is on record?
A: Its value is inactive: 3.83%.

Q: For `O=C(NCCN1CCOCC1)c1cc(-c2ccco2)on1`, which Potency is on record?
A: Its Potency is inconclusive: 35.5 µM [activator, single point].

Q: For `O=C(NCCN1CCOCC1)c1cc(Br)ccc1Cl`, which “activity change, negative = inhibition” value is on record?
A: Its value is inactive: -7.66% [at 46.1 µM].

Q: Which “activity change, negative = inhibition” value does the source give for `CN(C)S(=O)(=O)c1ccc(C(=O)Nc2ccc(S(=O)(=O)NC3=NCCCCC3)cc2)cc1` here?
A: The value was inactive: -5.56% [at 46.1 µM].

Q: Which “activity change, negative = inhibition” value does the source give for `Cc1ccc(CNC(=O)c2cccc(S(C)(=O)=O)c2)cc1` here?
A: The value was inactive: 23.9%.

Q: Which “activity change, negative = inhibition” value does the source give for `Cc1ccc(Cl)cc1NC(=O)Cn1ncc2c(C)n(Cc3ccccc3F)c(C)c2c1=O` here?
A: Its value is inactive: -23.6% [at 46.1 µM].

Q: For `CCNC(=O)c1c(NC(=O)c2cc(-c3cc(C)ccc3O)n[nH]2)sc2c1CCCC2`, which Potency is on record?
A: The Potency was inconclusive: 2.51 µM [inhibitor, partial curve, poor fit].

Q: Which “activity change, negative = inhibition” value does the source give for `Cc1cc(C(=O)CCC(=O)N(C)CC(=O)Nc2ccc(OC(F)(F)F)cc2)c(C)s1` here?
A: The value was inactive: 1.66%.

Q: Which Potency does the source give for `Cc1cc(C(F)(F)F)nc(NCc2ccc(F)cc2)n1` here?
A: Its Potency is inconclusive: 5.62 µM [activator, single point].

Q: For `CC(C)Cn1c(=O)c2c(nc3n2CCCN3Cc2ccccc2)n(C)c1=O`, which Potency is on record?
A: The Potency was inconclusive: 20 µM [inhibitor, single point].

Q: For `O=c1c2ccccc2nc(/C=C/c2c[nH]c3ccccc23)n1-c1ccc([N+](=O)[O-])cc1`, which Potency is on record?
A: The Potency was inconclusive: 5.62 µM [activator, single point].

Q: With `CCOC(=O)c1[nH]c2ccc(Cl)cc2c1NC(=O)c1nonc1C` as the compound, how does the “activity change, negative = inhibition” value read?
A: Its value is inactive: 9.35%.

Q: For `CCOC(=O)c1c(NC(=O)C[n+]2ccc(Cc3ccccc3)cc2)sc(C)c1C`, which Potency is on record?
A: The Potency was inconclusive: 17.8 µM [inhibitor, single point].

Q: Which Potency does the source give for `Cc1ccc(S(=O)(=O)N2CCC(C(=O)NNC(=O)C3CC3)CC2)cc1Cl` here?
A: The Potency was inconclusive: 35.5 µM [activator, single point].

Q: For `CCC(=O)N1CCc2cc(Br)cc(S(=O)(=O)NC3CCN(Cc4ccccc4)CC3)c21`, which Potency is on record?
A: Its Potency is inconclusive: 7.94 µM [inhibitor, partial curve, poor fit].

Q: With `COc1cccc(NC(=O)c2ccc3c(c2)OCCO3)c1` as the compound, how does the Potency read?
A: Its Potency is inconclusive: 6.31 µM [inhibitor, partial curve, poor fit].

Q: Which “activity change, negative = inhibition” value does the source give for `COc1cccc(CC(=O)Nc2c(C(=O)N3CCN(c4ccccc4)CC3)oc3ccccc23)c1` here?
A: The value was inactive: -9.74% [at 46.1 µM].

Q: With `CC(NC(=O)C1CCCC1)C1CC2CCC1C2` (centres undefined) as the compound, how does the “activity change, negative = inhibition” value read?
A: Its value is inactive: -1.83%.

Q: Which Potency does the source give for `COc1ccc(C2C(C(=O)N3CCN(c4ccccn4)CC3)CC(=O)N2c2ccc(OC)cc2)cc1` (centres undefined) here?
A: The Potency was inconclusive: 29.1 µM [inhibitor, single point].

Q: For `C/C(=N/NC(=O)COc1cc(C)ccc1C(C)C)C(=O)O`, which Potency is on record?
A: Its Potency is inconclusive: 7.08 µM [inhibitor, partial curve, poor fit].

Q: With `Cc1ccc(SCC(=O)N2CCN(S(=O)(=O)c3cccs3)CC2)cc1` as the compound, how does the Potency read?
A: The Potency was inconclusive: 25.1 µM [inhibitor, single point].

Q: With `NC(=O)N/N=C/c1ccc(OCc2cccc(Cl)c2)cc1` as the compound, how does the “activity change, negative = inhibition” value read?
A: The value was inactive: -7.91% [at 46.1 µM].

Q: With `COc1cccc(C(C(=O)NC(C)(C)C)N(CC(C)C)C(=O)CCC(=O)Nc2cc(C)on2)c1OC` (centres undefined) as the compound, how does the Potency read?
A: The Potency was inconclusive: 11.2 µM [inhibitor, partial curve, poor fit].

Q: For `Brc1ccccc1CN1CCC(Cc2ccccc2)CC1`, which Potency is on record?
A: Its Potency is inconclusive: 35.5 µM [inhibitor, single point].

Q: Which Potency does the source give for `N/C(=N\S(=O)(=O)c1ccc(Cl)s1)c1ccccc1` here?
A: The Potency was “inactive”.

Q: With `Cc1cc(NC(=O)CCC2COc3ccccc3O2)no1` (centres undefined) as the compound, how does the Potency read?
A: The Potency was inconclusive: 12.6 µM [activator, single point].

Q: For `O=C(Cn1c(=O)n(Cc2ccco2)c(=O)c2sc3ccccc3c21)Nc1ccc(F)cc1F`, which “activity change, negative = inhibition” value is on record?
A: Its value is inactive: -17.5% [at 46.1 µM].

Q: Which “activity change, negative = inhibition” value does the source give for `CC(=O)Nc1ccc(S(=O)(=O)Nc2nc3ccccc3nc2Nc2ccc3ccccc3c2)cc1` here?
A: The value was inactive: 15%.

Q: Which Potency does the source give for `CC1SC2(NC1=O)C1CC3CC(C1)CC2C3` (centres undefined) here?
A: Its Potency is inconclusive: 6.31 µM [inhibitor, single point].

Q: For `COc1ccc(CCNC(=O)c2ccc3nc(-c4ccco4)c(-c4ccco4)nc3c2)cc1OC`, which Potency is on record?
A: The Potency was active: 10.3 µM.

Q: Which “activity change, negative = inhibition” value does the source give for `O=C(CCCCCNC(=S)Nc1ccc(Cl)cc1)C[N+](=O)[O-]` here?
A: The value was inactive: 4.67% [at 46.1 µM].

Q: Which Potency does the source give for `COc1cc(CNn2c(C)n[nH]c2=S)cc(Cl)c1OCc1ccc(F)cc1` here?
A: The Potency was inconclusive: 4.61 µM [inhibitor, partial curve, poor fit].

Q: With `O=C(NCCc1ccc(F)cc1)C1CCCCC1` as the compound, how does the “activity change, negative = inhibition” value read?
A: Its value is inactive: 2.47% [at 46.1 µM].

Q: With `COc1ccc(CN2CCc3c([nH]c4ccccc34)C2)c(OC)c1C` as the compound, how does the Potency read?
A: The Potency was inconclusive: 35.5 µM [inhibitor, single point].

Q: Which Potency does the source give for `CNC(=O)c1nc(C)n(-c2ccc(Cl)cc2Cl)n1` here?
A: Its Potency is inconclusive: 31.6 µM [activator, single point].

Q: For `O=C(O)c1ccc(CSc2nnnn2-c2ccc(F)cc2)cc1`, which Potency is on record?
A: Its Potency is inconclusive: 3.98 µM [activator, partial curve, poor fit].

Q: Which Potency does the source give for `COc1ccc(NC(=O)C2CC(=O)N(c3ccccc3C)C2)c(OC)c1` (centres undefined) here?
A: Its Potency is inconclusive: 35.5 µM [activator, partial curve, poor fit].

Q: For `CC(NCCC(c1ccccc1)c1ccccc1)c1ccccc1` (centres undefined), which Potency is on record?
A: Its Potency is inconclusive: 8.2 µM [inhibitor, partial curve, poor fit].

Q: With `CCN(CC)S(=O)(=O)c1cccc(NC(=O)/C=C/c2ccc([N+](=O)[O-])cc2)c1` as the compound, how does the “activity change, negative = inhibition” value read?
A: The value was inactive: -0.499%.

Q: Which Potency does the source give for `COc1cc(N)c(Cl)cc1C(=O)OCC(=O)c1ccc2c(c1)NC(=O)CO2` here?
A: The Potency was inconclusive: 0.794 µM [activator, full curve, poor fit].

Q: Which Potency does the source give for `CC(C)(C)SCCNC(=O)/C=C/c1ccc(F)cc1` here?
A: The Potency was inconclusive: 0.316 µM [inhibitor, full curve, poor fit].

Q: With `CCOc1ccc(-c2cc3nc(C4CCN(C(=O)OC(C)(C)C)CC4)c(C(=O)Nc4cccc(Cl)c4C)cn3n2)cc1` as the compound, how does the Potency read?
A: The Potency was inconclusive: 1.41 µM [inhibitor, full curve, poor fit].

Q: For `COc1ccc(NC(=O)NCc2ccc(Cl)cc2)cc1`, which “activity change, negative = inhibition” value is on record?
A: Its value is inactive: 22.4% [at 46.1 µM].

Q: Which Potency does the source give for `O=C1NC(NS(=O)(=O)c2ccccc2)(C(F)(F)F)C(=O)N1CCc1ccccc1` (centres undefined) here?
A: The Potency was inconclusive: 35.5 µM [activator, single point].

Q: With `CC(C)S(=O)(=O)C1=NSC2=NC(=O)/C(=C\c3ccc(-c4ccccc4)o3)C(=N)N21` as the compound, how does the Potency read?
A: The Potency was inconclusive: 11.2 µM [inhibitor, single point].

Q: For `C=CCSc1nsc(NC(=O)Nc2ccc(F)cc2)n1`, which Potency is on record?
A: Its Potency is inconclusive: 2 µM [inhibitor, full curve, poor fit].

Q: With `CCOC(=O)C(C)Sc1nc(-c2ccco2)cc(C(F)(F)F)c1C#N` (centres undefined) as the compound, how does the “activity change, negative = inhibition” value read?
A: Its value is inactive: 2.35%.

Q: With `CC(C)(C)C(=O)NC(=S)Nc1ccc(Cc2ccncc2)cc1` as the compound, how does the Potency read?
A: The Potency was inconclusive: 35.5 µM [inhibitor, partial curve, poor fit].

Q: With `COc1ccc(-c2nc(NC(=O)Cn3ccc(C(F)(F)F)n3)sc2C)cc1` as the compound, how does the Potency read?
A: Its Potency is inconclusive: 14.1 µM [inhibitor, partial curve, poor fit].

Q: Which Potency does the source give for `COc1ccc(OC)c(Nc2nc(-c3ccc(O)c(O)c3)cs2)c1` here?
A: Its Potency is inconclusive: 3.55 µM [inhibitor, full curve].

Q: Which Potency does the source give for `O=C(NCc1ccccc1F)C1CCCN(C(=O)Nc2ccccc2)C1` (centres undefined) here?
A: Its Potency is inconclusive: 7.08 µM [inhibitor, full curve, poor fit].

Q: For `Cc1ccc(CS(=O)(=O)c2ccccc2-c2nnc(-c3ccc(Cl)cc3)o2)cc1`, which Potency is on record?
A: Its Potency is inconclusive: 10 µM [inhibitor, single point].

Q: With `O=C(O)c1ccc(COc2ccc3ccccc3c2/C=C2/NC(=O)N(Cc3ccc(F)cc3)C2=O)cc1` as the compound, how does the Potency read?
A: The Potency was inconclusive: 0.562 µM [inhibitor, full curve, poor fit].

Q: With `O=C1CCc2cc(S(=O)(=O)N3CCN(C(=O)c4ccco4)CC3)ccc2N1` as the compound, how does the “activity change, negative = inhibition” value read?
A: Its value is inactive: 12%.

Source: PubChem BioAssay AID540276 (National Center for Advancing Translational Sciences (NCATS), 2011)
